The values below come from patent publication US20260137784A1.

Sequences of proteins named here, by UniProt entry; tags and fusion partners are left off. Residues count along the entry.
UniProt P25092, residues 24-1073: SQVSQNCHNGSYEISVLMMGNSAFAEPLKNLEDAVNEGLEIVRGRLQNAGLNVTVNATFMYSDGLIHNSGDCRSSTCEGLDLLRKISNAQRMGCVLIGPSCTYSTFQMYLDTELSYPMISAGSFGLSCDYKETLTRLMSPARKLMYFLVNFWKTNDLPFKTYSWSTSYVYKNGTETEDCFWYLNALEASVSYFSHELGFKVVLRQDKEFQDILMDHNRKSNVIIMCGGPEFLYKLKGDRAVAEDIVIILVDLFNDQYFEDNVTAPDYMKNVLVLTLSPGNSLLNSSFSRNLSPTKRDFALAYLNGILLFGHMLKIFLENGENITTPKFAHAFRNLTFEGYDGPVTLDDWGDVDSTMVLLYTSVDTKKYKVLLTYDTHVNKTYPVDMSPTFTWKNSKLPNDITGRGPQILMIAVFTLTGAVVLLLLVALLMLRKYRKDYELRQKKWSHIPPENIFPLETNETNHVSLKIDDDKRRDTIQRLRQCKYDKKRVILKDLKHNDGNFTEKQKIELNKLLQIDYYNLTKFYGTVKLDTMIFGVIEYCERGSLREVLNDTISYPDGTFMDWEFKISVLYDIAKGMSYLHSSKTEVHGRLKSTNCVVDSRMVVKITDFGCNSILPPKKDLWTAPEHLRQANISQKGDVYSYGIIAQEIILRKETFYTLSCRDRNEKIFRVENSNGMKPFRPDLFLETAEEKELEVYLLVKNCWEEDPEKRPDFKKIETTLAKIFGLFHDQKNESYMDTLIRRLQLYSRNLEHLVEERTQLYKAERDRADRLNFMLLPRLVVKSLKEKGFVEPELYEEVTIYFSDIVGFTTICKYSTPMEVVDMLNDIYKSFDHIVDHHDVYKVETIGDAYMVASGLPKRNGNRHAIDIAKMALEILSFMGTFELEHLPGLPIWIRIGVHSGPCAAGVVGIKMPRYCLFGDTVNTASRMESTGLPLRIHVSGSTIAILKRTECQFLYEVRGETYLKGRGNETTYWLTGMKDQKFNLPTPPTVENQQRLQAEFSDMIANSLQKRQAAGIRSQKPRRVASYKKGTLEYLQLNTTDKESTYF

For assay [1], the target named is GUCY2C (Guanylate Cyclase 2C) (human) (UniProt P25092). As to the kind of experiment: membrane proteome array of over 6,000 human membrane proteins.
Assay [2] has the same target. The assay is described as follows: fluorescence of HEK cells transfected with GUCY2C plasmid or empty vector after incubation with the fusion protein at various concentrations.

These are yes or no findings as the source states them, for the method shown. Some results given as binding are weak or reduced against the parent protein; the word gives no strength. Tags and fused reporters may be left off the sequences shown.

B1: G22H8-GFP (G22H8 nanobody expressed as a GFP fusion protein) (VHH, not shown: large carriers)
VHH: QVQLVESGGGLVQPGGSLRLSCAASRNIASLYRVDWYRQAPGKGLELVAGRTSGGTTTYLDAVEGRFTISRDNVKDTLYLQMNSLRAEDTAVYYCHAHDHWRDSWGQGTLVTVSS
With B1, the binding result in assay [1] and in assay [2] was “binds” each time.
